1 sequence from article PMC8149794 can be followed below.

For at least one entry, the source does not settle the construct or the ends of the probe.

Data set [1] addresses PpILR1-M C137S (Prunus persica) (UniProt M5W208). The data set is described as follows: EMSA. Conditions: Thermo Scientific EMSA kit, per manufacturer's instructions; pH and temperature not stated; recombinant protein; protein details: GST (pGEX-6P-1, N-terminal); label: 5' biotin. (In general: In EMSA bound probe runs differently from free probe, usually more slowly.)
Data set [2] addresses PpILR1 (Prunus persica) (UniProt M5W208). The data set is described as follows: EMSA. Conditions: Thermo Scientific EMSA kit, per manufacturer's instructions; pH and temperature not stated; recombinant protein; protein details: GST (pGEX-6P-1, N-terminal); label: 5' biotin.

With “CGTAAAAGTTTTGAGTCGGGAAGTAATCGGTGACATGTTAAATTCAAACTATACTAATATGG (double strand) [PpACS1-P1 GTGACA probe]”, the binding result in data set [1] and in data set [2] was “binds” in each case.
